Source: PubChem BioAssay AID316 (DTP/NCI, 2004)
The list shows only some results of the screen, not a fair sample: it is rich in T/C values a quarter to a half above the control, in often repeated tests (any T/C) and in doses without a T/C. Further doses and runs are listed elsewhere. T/C: endpoint of the treated group in % of that of the vehicle group. Some doses have a count of surviving animals in place of a T/C: the source files T/C as zero there, which appears to mark a toxic dose or a test without result, not a measured value. Some survivor counts are full or nearly so, which does not show that the dose was tolerated: survival well below the control is almost never listed, so the zero probably covers shortened survival too. Survivors were counted at the toxicity check, usually on the fifth day, unless a day is given; later deaths do not show. Schedule codes are those of the source, taken here to give the interval after Q, in days (D) or hours (H), and the number of doses after X. Some doses were run more than once; the values are given in rising order. Where survival is the endpoint, the PubChem record calls one and a half times the control and up active, and a quarter to a half above the control has no call in these data; cut-offs in other NCI protocols can differ. Some T/C values are followed by the survivors on the day toxicity was checked, most often the fifth; where none is given, no animal had died by that day. Counts like (3×) count equal records among those shown. Numbered stars: 1 amine (or outer) side, 2 acyl side, 3 side chain; on linkers, the order of the positions; unused ones are H or OH. Bridge positions count the residues as written; N and C are the ends. Square brackets hold non-standard residues; d marks the D form. Peptide text beside a SMILES is read from it. I, II: the chains in the order shown. Actinocin(9to1) = Cc1c2oc3c(C)ccc(C(=O)[*:1])c3nc-2c(C(=O)[*:2])c(N)c1=O; aThr = C[C@H](O)[C@H](N)C(=O)O; NMeV = CN[C@H](C(=O)O)C(C)C; Sar = CNCC(=O)O

Test system: P1534 leukemia ip, CD2F1 mice, survival T/C
Assay: NCI In Vivo Anticancer Drug Screen. Data for tumor model P1534 Leukemia (intraperitoneal) in CD2F1 (CDF1) mice
Conditions: T/C endpoint: mean survival time, higher T/C = longer survival
Description: The antitumor activity of compounds was measured in mice bearing transplantable tumors. Survival or tumor size were measured and the results are expressed as the measurement made in the treated group (T) divided by the measurement made in the vehicle treated control group (C). The tumor model used in this assay is P1534 Leukemia (intraperitoneal) in CD2F1 (CDF1) mice

[1] = dose: 25.0 mg/kg/injection, schedule: Q01DX010 (ip), vehicle: alkali diluted with saline
[2] = dose: 25.0 mg/kg/injection, schedule: Q01DX010 (ip), vehicle: saline
[3] = dose: 50.0 mg/kg/injection, schedule: Q01DX010 (ip), vehicle: saline
[4] = dose: 100.0 mg/kg/injection, schedule: Q01DX010 (ip), vehicle: saline
[5] = dose: 200.0 mg/kg/injection, schedule: Q01DX010 (ip), vehicle: saline
[6] = dose: 0.5 mg/kg/injection, schedule: Q01DX010 (ip), vehicle: saline
[7] = dose: 6.0 mg/kg/injection, schedule: Q01DX010 (ip), vehicle: saline
[8] = dose: 6.25 mg/kg/injection, schedule: Q01DX010 (ip), vehicle: water
[9] = dose: 12.5 mg/kg/injection, schedule: Q01DX010 (ip), vehicle: water
[10] = dose: 6.0 micrograms/kg/injection, schedule: Q01DX010 (ip), vehicle: other
[11] = dose: 25.0 micrograms/kg/injection, schedule: Q01DX010 (ip), vehicle: other
[12] = dose: 50.0 micrograms/kg/injection, schedule: Q01DX010 (ip), vehicle: other
[13] = dose: 400.0 mg/kg/injection, schedule: Q01DX010 (ip), vehicle: saline

For CC(=O)O[C@]1(C(C)=O)CC[C@H]2[C@@H]3C[C@H](C)C4=CC(=O)C=C[C@]4(C)[C@@]3(F)[C@@H](O)C[C@@]21C, the survivor count (dose: 50.0 mg/kg/injection, schedule: Q01DX010 (sc), vehicle: steroid suspending solution) was 6 of 6 and the survivor count (dose: 100.0 mg/kg/injection, schedule: Q01DX010 (sc), vehicle: steroid suspending solution) was 6 of 6.
CCCCCCCCCCCCNCCCCCCCCCCCC was tested, and the survivor count (dose: 15.0 mg/kg/injection, schedule: Q01DX010 (ip), vehicle: other) was 1 of 6.
For O=P1(N(CCCl)CCCl)NCCCO1 (centres undefined), the T/C (dose: 22.5 mg/kg/injection, schedule: Q01DX010 (ip), vehicle: saline) was 132 % of control.
For Nc1nc2n[nH]nc2c(=O)[nH]1, the T/C (dose: 12.5 mg/kg/injection, schedule: Q01DX010 (ip), vehicle: alkali diluted with saline) was 125 (2×), 131, 132 % of control, the T/C [1] was 124, 127 (2×), 131, 133, 135, 137 % of control and the survivor count [1] was 6 of 6. For the same compound, the T/C (dose: 50.0 mg/kg/injection, schedule: Q01DX010 (ip), vehicle: alkali diluted with saline) was 94, 124, 134, 135, 136 (2×), 140, 145 % of control, the T/C (dose: 100.0 mg/kg/injection, schedule: Q01DX010 (ip), vehicle: alkali diluted with saline) was 136, 141, 144 (2×), 145, 146, 148, 157 % of control and the T/C (dose: 200.0 mg/kg/injection, schedule: Q01DX010 (ip), vehicle: alkali diluted with saline) was 110, 124 [5 of 6 alive], 127 [5 of 6 alive], 130, 135, 136, 147, 162 % of control.
For NCCCCCCNCCCCCCN, the survivor count [2] was 6 of 6, the survivor count [3] was 0 of 6 and the survivor count [4] was 0 of 6.
For C1CCNC1, the survivor count [3] was 5 of 6 and the survivor count [4] was 0 of 6.
With OCCOCCN1CCN(CCCN2c3ccccc3Sc3ccc(C(F)(F)F)cc32)CC1 the survivor count (dose: 10.0 mg/kg/injection, schedule: Q01DX010 (ip), vehicle: saline) was 5 of 6, the survivor count (dose: 20.0 mg/kg/injection, schedule: Q01DX010 (ip), vehicle: saline) was 6 of 6 and the survivor count (dose: 40.0 mg/kg/injection, schedule: Q01DX010 (ip), vehicle: saline) was 5 of 6. For the same compound, the survivor count (dose: 80.0 mg/kg/injection, schedule: Q01DX010 (ip), vehicle: saline) was 0 of 6.
In the case of O=C(NO)c1ccncc1, the survivor count (dose: 750.0 mg/kg/injection, schedule: Q01DX010 (ip), vehicle: water) is reported as 3 of 6 and the survivor count (dose: 800.0 mg/kg/injection, schedule: Q01DX010 (ip), vehicle: water) is reported as 3 of 6.
CCc1c(CC(=O)O)c2cc(C)ccc2n1Cc1ccc(Cl)cc1 was tested, and the survivor count [2] was 6 of 6, the survivor count [4] was 5 of 6 and the survivor count [5] was 0 of 6.
For NNC(=O)c1cnccn1, the T/C (dose: 60.0 mg/kg/injection, schedule: Q01DX010 (ip), vehicle: water) was 138 % of control, the survivor count (dose: 100.0 mg/kg/injection, schedule: Q01DX010 (ip), vehicle: water) was 3 of 6 and the survivor count (dose: 120.0 mg/kg/injection, schedule: Q01DX010 (ip), vehicle: water) was 1 of 6. For the same compound, the survivor count (dose: 140.0 mg/kg/injection, schedule: Q01DX010 (ip), vehicle: water) was 0 of 6.
For C1CN1c1nc(N2CC2)nc(N2CC2)n1, the T/C (dose: 0.13 mg/kg/injection, schedule: Q01DX010 (ip), vehicle: saline) was 100, 105, 108, 110 (2×), 117 % of control, the T/C (dose: 0.25 mg/kg/injection, schedule: Q01DX010 (ip), vehicle: saline) was 110, 119, 121 (2×), 151, 155 % of control and the T/C [6] was 99, 105, 110, 135 % of control. The survivor count [6] was 5 of 6 and 6 of 6, the survivor count (dose: 1.0 mg/kg/injection, schedule: Q01DX010 (ip), vehicle: saline) was 3 of 6, 4 of 6, 6 of 6 and the survivor count (dose: 2.0 mg/kg/injection, schedule: Q01DX010 (ip), vehicle: saline) was 6 of 6.
In the case of COCCOC, the survivor count (dose: 1000.0 mg/kg/injection, schedule: Q01DX010 (ip), vehicle: saline) is reported as 6 of 6.
With S=P(N1CC1)(N1CC1)N1CC1 the T/C (dose: 0.75 mg/kg/injection, schedule: Q01DX010 (ip), vehicle: saline) was 100 (2×), 110, 113 % of control, the T/C (dose: 1.5 mg/kg/injection, schedule: Q01DX010 (ip), vehicle: saline) was 104, 109, 117, 127 % of control and the T/C (dose: 1.57 mg/kg/injection, schedule: Q01DX010 (ip), vehicle: water) was 108, 109, 113, 116 % of control. The T/C (dose: 3.0 mg/kg/injection, schedule: Q01DX010 (ip), vehicle: saline) was 109 (2×), 134, 144 % of control, the T/C (dose: 3.13 mg/kg/injection, schedule: Q01DX010 (ip), vehicle: water) was 88, 106, 120 % of control (2×) and the T/C [7] was 104 and 109 % of control. The survivor count [7] was 5 of 6 and 6 of 6, the T/C [8] was 89 % of control and the survivor count [8] was 6 of 6. The survivor count [9] was 6 of 6 and the survivor count (dose: 25.0 mg/kg/injection, schedule: Q01DX010 (ip), vehicle: water) was 2 of 6, 4 of 6, 6 of 6.
With COc1cc2c(cc1Oc1c(Oc3c(O)c(OC)cc4c3C(CC(C)C)N(C)CC4)c(OC)cc3c1C(CC(C)C)N(C)CC3)C(CC(C)C)N(C)CC2 (centres undefined) the survivor count [5] was 5 of 6.
With C[C@H](N)C(=O)N[C@@H]1[C@H]2C(=C(O)C[C@@H](O)[C@@H]2O)C(=O)O[C@@H]1C the T/C (dose: 150.0 mg/kg/injection, schedule: Q01DX010 (ip), vehicle: saline) was 101, 103, 104, 105 % of control, the T/C (dose: 300.0 mg/kg/injection, schedule: Q01DX010 (ip), vehicle: saline) was 102, 105, 114, 125 % of control [5 of 6 alive] and the T/C (dose: 600.0 mg/kg/injection, schedule: Q01DX010 (ip), vehicle: saline) was 109, 110, 115, 117 % of control. The T/C (dose: 1200.0 mg/kg/injection, schedule: Q01DX010 (ip), vehicle: saline) was 91, 97, 111, 119 % of control and the survivor count (dose: 2400.0 mg/kg/injection, schedule: Q01DX010 (ip), vehicle: saline) was 1 of 6, 2 of 6, 3 of 6.
For CC(=O)N(C)C, the survivor count (dose: 500.0 mg/kg/injection, schedule: Q01DX010 (ip), vehicle: saline) was 6 of 6.
For Cc1c2oc3c(C)ccc(C(=O)N[C@@H]4C(=O)N[C@H](C(C)C)C(=O)N5CCC[C@H]5C(=O)N(C)CC(=O)N(C)[C@@H](C(C)C)C(=O)O[C@H]4C)c3nc-2c(C(=O)N[C@@H]2C(=O)N[C@H](C(C)C)C(=O)N3CCC[C@H]3C(=O)N(C)CC(=O)N(C)[C@@H](C(C)C)C(=O)O[C@H]2C)c(N)c1=O (I: [aThr][dV]P[Sar][NMeV] / II: [aThr][dV]P[Sar][NMeV]; ester I:1-I:C, II:1-II:C; linker I:N-II:N via Actinocin(9to1)), the T/C [10] was 97, 100, 102, 103, 110 % of control, the survivor count [10] was 6 of 6 and the T/C (dose: 13.0 micrograms/kg/injection, schedule: Q01DX010 (ip), vehicle: other) was 87, 95, 99 [5 of 6 alive], 102, 113, 117 % of control. For the same compound, the T/C [11] was 100, 106 [5 of 6 alive], 120, 124 % of control, the survivor count [11] was 6 of 6 and the T/C [12] was 93, 98, 127, 141 % of control. The survivor count [12] was 6 of 6 and the survivor count (dose: 100.0 micrograms/kg/injection, schedule: Q01DX010 (ip), vehicle: other) was 6 of 6.
In the case of CCCNc1ncnc2c1cnn2C, the survivor count [3] is reported as 6 of 6.
COc1c(OC2OC(CO)C(O)C(O)C2O)cc2c(c1OC)-c1ccc(OC)c(=O)cc1C(NC(C)=O)CC2 (centres undefined) was tested, and the survivor count [4] was 6 of 6, the survivor count [5] was 4 of 6 and the survivor count [13] was 0 of 6.
COc1cc2c3c(c4ccc(OC)c(OC)c4c2cc1OC)CN1CCC[C@@H]1C3 was tested, and the T/C [9] was 132 % of control [5 of 6 alive].
CC[n+]1c(-c2ccccc2)c2cc(N)ccc2c2ccc(N)cc21 was tested, and the T/C (dose: 5.0 mg/kg/injection, schedule: Q01DX010 (ip), vehicle: saline) was 139 % of control [5 of 6 alive].
For O=C(CCCNC(=O)OCc1ccccc1)NCCCCCCCCCCNC(=O)CCCNC(=O)OCc1ccccc1, the survivor count [5] was 6 of 6 and the survivor count [13] was 6 of 6.
